Assay results

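A 30-minute HTRF cAMP assay in gsp-mutant cells, looking for antagonists that lower cAMP.
Compounds were titrated over four concentrations from about 0.61 to 77 µM.
The number is the fitted AC50 potency, and a lower value means a more potent inhibitor.
Compounds are scored by curve class and fitted log AC50; scores of 40–100 are called active, 1–39 inconclusive and 0 inactive.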

Values are in µM.
All entries here are filed as inconclusive.
These entries are mostly ones the record files as inconclusive; other results of the assay are not listed here.
Potencies fitted to partial, single-point or poorly fitting curves are rough.
Activity scores are not listed here.

With O=C(CC1C(=O)NCCN1Cc1ccc(F)cc1)NCCN1CCCc2ccccc21 (configuration not stated) the assay gave fitted potency 28.18 µM (inhibitor, single point). Result for Cc1ccc(NC(=S)NC(NC(=O)c2ccccc2)C(Cl)(Cl)Cl)c(C)c1 (configuration not stated) was fitted potency 50.12 µM (inhibitor, single point). O=[N+]([O-])c1cc(-c2n[nH]c(-c3ccccc3)n2)cc([N+](=O)[O-])c1 gave fitted potency 15.85 µM (inhibitor, partial curve). Result for O=C1CC(c2ccccc2)=NN1c1nc(-c2ccccc2)cs1 was fitted potency 31.62 µM (inhibitor, single point). O=C(NC(=S)Nc1nc(-c2ccccc2)cs1)c1cncc(Br)c1 read fitted potency 19.95 µM (inhibitor, partial curve, poor fit). With C/C=C(/C)C(=O)O[C@@H]1c2c(ccc3ccc(=O)oc23)OC(C)(C)[C@@H]1OC(=O)/C(C)=C\C the assay gave fitted potency 10 µM (inhibitor, partial curve, poor fit).

O=C(COC(=O)c1cc([N+](=O)[O-])ccc1NCCO)Nc1ccc2c(c1)OCO2 gave fitted potency 28.18 µM (inhibitor, partial curve). Cc1sc2ncnc(N3CCC(C(=O)Nc4ccc(C#N)c(Cl)c4)CC3)c2c1C read fitted potency 31.62 µM (inhibitor, single point). O=C(O)CSc1cc(NS(=O)(=O)c2cccc([N+](=O)[O-])c2)c2ccccc2c1O read fitted potency 50.12 µM (inhibitor, single point). For C=CCn1c(C)cc(C(=O)COC(=O)c2ccc(N)c([N+](=O)[O-])c2)c1C the result was fitted potency 8.912 µM (inhibitor, partial curve, poor fit). O=c1c(Cc2ccc(Cl)cc2Cl)c(O)ccn1Cc1ccc(Cl)cc1 gave fitted potency 28.18 µM (inhibitor, single point). With C[C@H](CCC(=O)O)[C@H]1CC[C@H]2[C@@H]3[C@@H](O)C[C@@H]4C[C@H](O)CC[C@]4(C)[C@H]3CC[C@]12C the assay gave fitted potency 35.48 µM (inhibitor, partial curve, poor fit).

C/C(=N\NC(=O)c1ccc(NS(=O)(=O)c2cccs2)cc1)c1ccc2ccccc2c1 gave fitted potency 14.13 µM (inhibitor, partial curve). With COc1cc2[nH]c(C(=O)N3CCC(Cc4ccccc4)CC3)cc2c(OC)c1OC the assay gave fitted potency 7.08 µM (inhibitor, partial curve, poor fit). CC1CCC/C(=N/Nc2ccc([N+](=O)[O-])cc2[N+](=O)[O-])C1 (configuration not stated) read fitted potency 39.81 µM (inhibitor, partial curve, poor fit). Result for CO[C@@]12[C@@H]3N[C@@H]3CN1C1=C(C(=O)C(N)=C(C)C1=O)[C@@H]2COC(N)=O was fitted potency 15.85 µM (inhibitor, partial curve, poor fit). With Cc1cc(/C=C2/C(=O)NC(=O)N(Cc3ccco3)C2=O)c(C)n1-c1ccccc1O the assay gave fitted potency 35.48 µM (inhibitor, single point). With NS(=O)(=O)c1cc2c(cc1Cl)NCNS2(=O)=O the assay gave fitted potency 10 µM (inhibitor, single point).

Result for C/C(CC(=O)Nc1ccc(Cl)c(C(F)(F)F)c1)=N\NC(=O)c1ccccc1O was fitted potency 50.12 µM (inhibitor, single point). Result for O=C(NC1CCC(Oc2ccc(C(=O)O)cc2)CC1)NC12CC3CC(CC(C3)C1)C2 (configuration not stated) was fitted potency 22.39 µM (inhibitor, partial curve, poor fit). C[C@H](CCC(=O)O)[C@H]1CC[C@H]2[C@@H]3[C@H](O)C[C@@H]4C[C@H](O)CC[C@]4(C)[C@H]3CC[C@]12C gave fitted potency 31.62 µM (inhibitor, partial curve, poor fit). Cc1nn(-c2ccccc2)c2[nH]c(=O)c(CNCCN3CCOCC3)cc12 gave fitted potency 11.22 µM (inhibitor, single point). Result for CC(C)(C)C(=O)NC(NC(=S)Nc1sc2c(c1C#N)CCCC2)C(Cl)(Cl)Cl (configuration not stated) was fitted potency 3.981 µM (inhibitor, partial curve, poor fit). O=C(NC(NC(=S)Nc1c(Cl)cc(Cl)cc1Cl)C(Cl)(Cl)Cl)OCc1ccccc1 (configuration not stated) read fitted potency 31.62 µM (inhibitor, partial curve, poor fit).

Result for CN1CCc2cc(O)cc3c2[C@H]1Cc1ccc(O)c(O)c1-3 was fitted potency 14.13 µM (inhibitor, partial curve). For COc1ccc2c(c1)c(C(=O)N/N=C/c1cn(C)c3ccccc13)c(C)n2C the result was fitted potency 35.48 µM (inhibitor, partial curve, poor fit). With Cc1ccc(Nc2nnc(SCC(=O)Nc3cccc(S(=O)(=O)N4CCCCC4)c3)s2)cc1 the assay gave fitted potency 28.18 µM (inhibitor, partial curve, poor fit). C#C[C@]1(O)CC[C@H]2[C@@H]3CCC4=CC(=O)CC[C@]4(C)[C@H]3CC[C@@]21C read fitted potency 7.943 µM (inhibitor, single point). For COc1cc(C(=O)NCCc2c[nH]c3ccccc23)ccc1OCc1c(C)noc1C the result was fitted potency 35.48 µM (inhibitor, single point). O=C1CC2(CCCC2)CC(=O)N1CCCCN1CCN(c2ncccn2)CC1 read fitted potency 7.943 µM (inhibitor, single point).

Cn1c(=O)c2c(nc(/C=C/c3cccc(Cl)c3)n2C)n(C)c1=O read fitted potency 35.48 µM (inhibitor, single point). For COc1cccc2c1C(=O)c1c(O)c3c(c(O)c1C2=O)C[C@](O)(C(C)=O)C[C@H]3O[C@@H]1C[C@@H](N)[C@@H](O)[C@@H](C)O1 the result was fitted potency 22.39 µM (inhibitor, partial curve, poor fit). COc1cc(/C=C/C(=O)CC(=O)/C=C/c2ccc(O)c(OC)c2)ccc1O read fitted potency 35.48 µM (inhibitor, single point). CN(C)c1ccc2nc3ccc(=[N+](C)C)cc-3sc2c1 read fitted potency 10 µM (inhibitor, partial curve). With CCC(=O)OC1(C(=O)CCl)[C@@H](C)C[C@H]2[C@@H]3CCC4=CC(=O)C=C[C@]4(C)[C@@]3(F)[C@@H](O)C[C@@]21C (some centres not stated) the assay gave fitted potency 5.623 µM (inhibitor, single point).

Repeated from the top, 4 entries:

With O=C(CC1C(=O)NCCN1Cc1ccc(F)cc1)NCCN1CCCc2ccccc21 (configuration not stated) the assay gave fitted potency 28.18 µM (inhibitor, single point).
With Cc1ccc(NC(=S)NC(NC(=O)c2ccccc2)C(Cl)(Cl)Cl)c(C)c1 (configuration not stated) the assay gave fitted potency 50.12 µM (inhibitor, single point).
With O=[N+]([O-])c1cc(-c2n[nH]c(-c3ccccc3)n2)cc([N+](=O)[O-])c1 the assay gave fitted potency 15.85 µM (inhibitor, partial curve).
With O=C1CC(c2ccccc2)=NN1c1nc(-c2ccccc2)cs1 the assay gave fitted potency 31.62 µM (inhibitor, single point).

The results are deposited in PubChem (AID624288; NCATS, 2012).